The whole screen tested about 320,000 compounds, of which about 22,000 (6.9%) were called active. This list was built around the results that the source calls inconclusive (neither active nor inactive); the mix of calls is not that of the screen. Calls come from the whole dose curve; as a rule, active = well fitted inhibition curve with a large enough effect; inconclusive = small, poorly fitted or top-dose-only effect, or another doubt; inactive = no such curve, though single readings can be large or run the other way. Potencies of inconclusive entries are doubtful fits and often do not repeat.
Experiment: Primary qHTS for delayed death inhibitors of the malarial parasite plastid, 96 hour incubation
Details: P. falciparum luciferase reporter growth; series mostly up to 28.7 µM
In short: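 Plates of compound plus infected erythrocytes (2% hematocrit, 0.05% parasitemia final) incubate 96 hours, 37 C, 5% CO2. Detection reagent added; reduced luminescence from the parasites' luciferase reporter flags inhibition.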
% is set by controls: 0 for no effect and ±100 for the full control effect; potency is the fitted concentration of half-maximal effect.

SMILES | Potency | activity change, negative = inhibition
O=C(CCC(=O)Nc1ccccc1)N/N=C/c1ccccc1F | inconclusive: 11.7 µM [inhibitor, single point] | 
Cc1cc(C)cc(N(C(=O)c2csnn2)C(C(=O)NC(C)(C)C)c2ccncc2)c1 (stereo not drawn) | inconclusive: 2.33 µM [inhibitor, full curve] | 
CN1CCN(c2ccc(Nc3ccnc4cc(Cl)ccc34)cc2)CC1 | inconclusive: 18.5 µM [inhibitor, single point] | 
CCCCN(C(=O)c1nn(C)c(=O)c2ccccc12)c1c(N)n(CCC)c(=O)[nH]c1=O | inactive | 
Cc1cccc(CS(=O)(=O)c2ncc(Cl)c(C(=O)Nc3nnc(C(C)C)s3)n2)c1 | inconclusive: 20.8 µM [inhibitor, partial curve, poor fit] | 
CCc1cc(SC#N)cc(CC)c1NC(=O)CCl | inconclusive: 9.28 µM [inhibitor, partial curve, poor fit] | 
C/C(=N/NC(=O)c1cc(C)[nH]n1)c1ccncc1 | inconclusive: 8.28 µM [inhibitor, partial curve, poor fit] | 
CCC1=NN2C(=N)/C(=C\c3ccc(OCCOc4ccc(NC(C)=O)cc4)c(OC)c3)C(=O)N=C2S1 | inconclusive: 10.4 µM [inhibitor, single point] | 
CC(NC(=O)CNC(=O)c1ccco1)c1ccc(S(N)(=O)=O)cc1 (stereo not drawn) | inactive | 
CCOC(=O)c1[nH]c2ccc(OC)cc2c1NC(=O)c1ccc(OC)c(OC)c1 | inconclusive: 18.5 µM [inhibitor, single point] | 
CCc1c(C(=O)N/N=C/c2sccc2C)nnn1-c1nonc1N | inconclusive: 0.465 µM [inhibitor, partial curve, poor fit] | 
O=C(NC1=NCCS1)c1ccc(N2CCCC2=O)cc1 | inactive | 
C=CCOc1ccc(C2C(C(=O)c3ccco3)=C(O)C(=O)N2c2nnc(C)s2)cc1 (stereo not drawn) | inactive | 
CCOc1ccc(-c2c(C(=O)N/N=C(\C)c3ccncc3)nnn2-c2nonc2N)cc1 | inconclusive: 18.5 µM [inhibitor, single point] | 
Nc1nc(SCc2ccc3c(c2)OCO3)n[nH]1 | inactive | 
Cc1nc2c(Cl)c(C)nn2c2c1CCC2 | inactive | 
CCOC(=O)c1c(S(=O)(=O)NC2CCN(C(=O)OCC)CC2)c(C)n(C)c1C | inactive | 
O=C(NC1CCCCC1)c1ccc(-c2ccc(Cl)cc2)o1 | inactive | 
Cc1[nH]c(=S)c(C#N)c2c1CCCC2 | inconclusive: 18.5 µM [inhibitor, partial curve, poor fit] | 
COc1cccc(NC(=O)c2nc3ncccn3n2)c1 | inconclusive: 11.7 µM [inhibitor, single point] | 
COc1cc(CNCc2ccccn2)ccc1OCc1ccccc1Cl | inconclusive: 16.5 µM [inhibitor, single point] | 
CC1CCCN(CC(O)COC(c2ccccc2)c2ccccc2)C1 (stereo not drawn) | inconclusive: 13.1 µM [inhibitor, single point] | 
CN1CCN(C(=S)Nc2cccc(S(=O)(=O)N(C)C)c2)CC1 | inconclusive: 18.5 µM [inhibitor, single point] | 

A different layout for some results above:

| SMILES | Potency | activity change, negative = inhibition |
| --- | --- | --- |
| O=C(CCC(=O)Nc1ccccc1)N/N=C/c1ccccc1F | inconclusive: 11.7 µM [inhibitor, single point] |  |
| CN1CCN(c2ccc(Nc3ccnc4cc(Cl)ccc34)cc2)CC1 | inconclusive: 18.5 µM [inhibitor, single point] |  |
| Cc1cccc(CS(=O)(=O)c2ncc(Cl)c(C(=O)Nc3nnc(C(C)C)s3)n2)c1 | inconclusive: 20.8 µM [inhibitor, partial curve, poor fit] |  |
| C/C(=N/NC(=O)c1cc(C)[nH]n1)c1ccncc1 | inconclusive: 8.28 µM [inhibitor, partial curve, poor fit] |  |
| CCC1=NN2C(=N)/C(=C\c3ccc(OCCOc4ccc(NC(C)=O)cc4)c(OC)c3)C(=O)N=C2S1 | inconclusive: 10.4 µM [inhibitor, single point] |  |
| CC(NC(=O)CNC(=O)c1ccco1)c1ccc(S(N)(=O)=O)cc1 (stereo not drawn) | inactive |  |
| CCOC(=O)c1[nH]c2ccc(OC)cc2c1NC(=O)c1ccc(OC)c(OC)c1 | inconclusive: 18.5 µM [inhibitor, single point] |  |
| CCc1c(C(=O)N/N=C/c2sccc2C)nnn1-c1nonc1N | inconclusive: 0.465 µM [inhibitor, partial curve, poor fit] |  |
| C=CCOc1ccc(C2C(C(=O)c3ccco3)=C(O)C(=O)N2c2nnc(C)s2)cc1 (stereo not drawn) | inactive |  |
| Nc1nc(SCc2ccc3c(c2)OCO3)n[nH]1 | inactive |  |
| COc1cccc(NC(=O)c2nc3ncccn3n2)c1 | inconclusive: 11.7 µM [inhibitor, single point] |  |
| COc1cc(CNCc2ccccn2)ccc1OCc1ccccc1Cl | inconclusive: 16.5 µM [inhibitor, single point] |  |
| CC1CCCN(CC(O)COC(c2ccccc2)c2ccccc2)C1 (stereo not drawn) | inconclusive: 13.1 µM [inhibitor, single point] |  |

(more compounds)

SMILES | Potency | activity change, negative = inhibition
CCN(CC)S(=O)(=O)c1ccc2oc(C(=O)NCCN3CCOCC3)c(C)c2c1 | inactive | 
CCOc1cccc2sc(N(CCN(C)C)C(=O)c3ccc(Br)s3)nc12 | inactive | 
CC1CC(C)CN(C(=O)c2cc3c(=O)n4ccccc4nc3s2)C1 (stereo not drawn) | inconclusive: 6.57 µM [inhibitor, partial curve] | 
COc1ccc(S(=O)(=O)NC(CC(C)C)C(=O)NC(C)c2cccs2)cc1 (stereo not drawn) | inconclusive: 9.28 µM [inhibitor, partial curve] | 
COc1ccc(C(=O)N/N=c2\oc3ccccc3cc2C(=O)NCc2ccccc2)cc1 | inconclusive: 18.5 µM [inhibitor, single point] | 
CCOc1ccc(OCCC(=O)N2CCN(S(=O)(=O)c3ccc(OCC)cc3)CC2)cc1 | inconclusive: 2.94 µM [inhibitor, full curve, poor fit] | 
Cc1cc(C)nc(N2CCN(S(=O)(=O)c3ccc(F)cc3)CC2)n1 | inconclusive: 1.04 µM [inhibitor, partial curve, poor fit] | 
O=C(Nc1nc2ccccc2n1CCN1CCOCC1)c1ccc(Cl)cc1 | inconclusive: 9.28 µM [inhibitor, partial curve, poor fit] | 
COc1cc(/C=C/C(=O)Nc2nc3ccc(S(=O)(=O)NC(C)C)cc3s2)cc(OC)c1OC | inconclusive: 11.7 µM [inhibitor, partial curve, poor fit] | 
C=CCOc1cccc(C2c3c(oc4ccc(F)cc4c3=O)C(=O)N2CCCN2CCOCC2)c1 (stereo not drawn) | inactive | 
O=C1CN(C(=O)OCc2ccccc2)c2ccccc2N1 | inconclusive: 10.4 µM [inhibitor, single point] | 
CC(OC(=O)c1cccnc1Cl)C(=O)Nc1ccc2c(c1)OCCO2 (stereo not drawn) | inactive | 
CCCCn1nc2cc(C(=O)NC3CCCc4ccccc43)ccc2c1OCC (stereo not drawn) | inconclusive: 7.38 µM [inhibitor, partial curve, poor fit] | 
COC(=O)c1ccccc1NC(=S)N1CCN(c2ccc(OC)cc2)CC1 | inactive | 
Cc1ccc(S(=O)(=O)NCCC(=O)NCCCSc2ccccc2)cc1 | inconclusive: 18.5 µM [inhibitor, single point] | 
CC(=O)c1ccc(N2CCN(C(=S)Nc3cccc(F)c3)CC2)cc1 | inactive | 
Cc1ccc(-c2nc(=S)c3c(n2Cc2ccco2)CC(C)(C)OC3)cc1 | active: 8.28 µM | 
O=C1C2CCCCC2C(=O)N1c1ccc(S(=O)(=O)Nc2ncccn2)cc1 (stereo not drawn) | inconclusive: 5.22 µM [inhibitor, partial curve] | 
O=C(Nc1ccc(Cl)c(S(=O)(=O)N2CCCC2)c1)c1nn(CCO)c(=O)c2ccccc12 | inconclusive: 6.57 µM [inhibitor, partial curve] | 
O=c1[nH]c2ccc(S(=O)(=O)Nc3ccccc3O)cc2[nH]1 | inactive | 
Cc1cc(OC(C)C(=O)NCC(O)c2ccccc2)c2c3c(c(=O)oc2c1)CCC3 (stereo not drawn) | inconclusive: 18.5 µM [inhibitor, partial curve, poor fit] | 
C=CCOc1cccc(C(=O)Nc2ncn[nH]2)c1 | inactive | 
O=C(NCc1ccc(F)cc1)C1CCCN(C(=O)NCc2ccccc2)C1 (stereo not drawn) | inconclusive: 4.65 µM [inhibitor, partial curve, poor fit] | 

SMILES | Potency | activity change, negative = inhibition
CCCc1cc(C(=O)Cc2ccc(C(=O)OCC)o2)c(O)cc1O | active: 11.7 µM | 
CCC(C)NC(=O)CCS(=O)(=O)c1ccc2c(c1)n(C)c(=O)c(=O)n2C (stereo not drawn) | inconclusive: 9.28 µM [inhibitor, single point] | 
O=C(Nc1cccc(Cl)c1)c1nc[nH]c1C(=O)N1CCN(c2ccccc2)CC1 | inconclusive: 10.4 µM [inhibitor, single point] | 
O=C(/C(=C(\[O-])c1ccccc1)[n+]1ccc2ccccc2c1)c1ccc(Cl)cc1 | inconclusive: 18.5 µM [inhibitor, single point] | 
COc1ccc(-c2nc(CN3CCCCC3CCc3ccccn3)c(C)o2)cc1 (stereo not drawn) | inconclusive: 0.37 µM [inhibitor, full curve, poor fit] | 
CNC(=S)N(Cc1ccc(OC)cc1)C1CC(=O)N(c2ccc(OC)cc2)C1=O (stereo not drawn) | inconclusive: 18.5 µM [inhibitor, single point] | 
O=C(c1ccc(F)cc1)C1CCN(CCn2c(=S)[nH]c3ccccc3c2=O)CC1 | active: 4.26 µM | 
Cc1ccccc1CCNC(=O)Cn1nc(C)c2c(C)n(-c3ccccc3)nc2c1=O | inactive | 
CC1CC(C)CN(C(=O)C2CCN(S(=O)(=O)c3cccs3)CC2)C1 (stereo not drawn) | inactive | 
COc1ccc(S(=O)(=O)NCCc2c[nH]c3ccc(Cl)cc23)cc1 | inconclusive: 1.65 µM [inhibitor, full curve] | 
O=C(NCCCN1CCCC1=O)c1ccc(NS(=O)(=O)c2cccc([N+](=O)[O-])c2)cc1 | inactive | 
Cc1ccc(-c2csc3ncnc(N4CCN(S(=O)(=O)c5cccs5)CC4)c23)cc1 | inconclusive: 18.5 µM [inhibitor, single point] | 
O=C(O)c1cnn(-c2nc(-c3cccc(F)c3)cs2)c1C(F)(F)F |  | inactive: 37% [at 1.15 µM]
Cc1onc(-c2ccc(Cl)cc2)c1-c1ccnc(SCC(=O)Nc2ccc(C(C)C)cc2)n1 | inconclusive: 18.5 µM [inhibitor, single point] | 
CCOc1ccc(N2C(=O)C3C(c4ccc(OC)cc4OC)NC(CCSC)(C(=O)OC)C3C2=O)cc1 (stereo not drawn) | inconclusive: 10.4 µM [inhibitor, partial curve, poor fit] | 
Cc1cc(-c2ccccc2)c2ccc(NC(=O)C(C)(C)C)nc2n1 | inconclusive: 18.5 µM [inhibitor, single point] | 
CC(=O)c1ccc(NC(=S)N2CCCC2)cc1 | inconclusive: 18.5 µM [inhibitor, single point] | 
COc1cccc2c1NC(C(=O)O)C1CC=CC21 (stereo not drawn) | inactive | 
Cc1ccc(S(=O)(=O)CCC(=O)Nc2nnc(-c3cccs3)o2)cc1 | inconclusive: 0.185 µM [inhibitor, partial curve, poor fit] | 
O=C(N/N=C/c1cc([N+](=O)[O-])ccc1O)c1cccc2cc[nH]c12 | active: 3.7 µM | 
CC12CN(NC(=O)c3ccc(Cl)cc3)C3(C#N)CC1CCC23C (stereo not drawn) | inconclusive: 8.28 µM [inhibitor, single point] | 
CCOC(=O)CSc1nc(NC#N)nc(N(CC)CC)n1 | inconclusive: 0.0165 µM [inhibitor, full curve, poor fit] | 

— PubChem BioAssay AID504834 (National Center for Advancing Translational Sciences (NCATS), 2011)
